# Paper PMC11470070, “Structural basis for synthase activation and cellulose modification in the E. coli Type II Bcs secretion system” (Nature Communications, 2024)
# Results are given in words; binding and its absence hold for the method and conditions named. Binding calls can cover weak binding; strength is not graded here. Where a sequence is shown, tags or fusion partners need not be part of it.
# Experiments:
# [1] = biological target: T1, BcsA cellulose synthase (BcsA^HA-FLAG) (E. coli, UniProt P37653 1-872); experiment: cryo-EM structure; same sample and grids as a1; class of particles with a c-di-GMP-free BcsA synthase (non-saturated macrocomplex), with local refinements; both purified
# T1 construct: BcsA, E. coli; amplified within the genomic region bcsRQA^HA-FLAGB from genomic DNA of the E. coli 1094 bcsA^HA-FLAG strain; domains NTD, TMD, GT, PilZ, C-terminal tail; Expressed from the whole genomic region bcsRQAB of strain 1094; One copy in the macrocomplex; source: for the BcsF variants E. coli Δbcs BL21*(DE3)
# T1 sequence: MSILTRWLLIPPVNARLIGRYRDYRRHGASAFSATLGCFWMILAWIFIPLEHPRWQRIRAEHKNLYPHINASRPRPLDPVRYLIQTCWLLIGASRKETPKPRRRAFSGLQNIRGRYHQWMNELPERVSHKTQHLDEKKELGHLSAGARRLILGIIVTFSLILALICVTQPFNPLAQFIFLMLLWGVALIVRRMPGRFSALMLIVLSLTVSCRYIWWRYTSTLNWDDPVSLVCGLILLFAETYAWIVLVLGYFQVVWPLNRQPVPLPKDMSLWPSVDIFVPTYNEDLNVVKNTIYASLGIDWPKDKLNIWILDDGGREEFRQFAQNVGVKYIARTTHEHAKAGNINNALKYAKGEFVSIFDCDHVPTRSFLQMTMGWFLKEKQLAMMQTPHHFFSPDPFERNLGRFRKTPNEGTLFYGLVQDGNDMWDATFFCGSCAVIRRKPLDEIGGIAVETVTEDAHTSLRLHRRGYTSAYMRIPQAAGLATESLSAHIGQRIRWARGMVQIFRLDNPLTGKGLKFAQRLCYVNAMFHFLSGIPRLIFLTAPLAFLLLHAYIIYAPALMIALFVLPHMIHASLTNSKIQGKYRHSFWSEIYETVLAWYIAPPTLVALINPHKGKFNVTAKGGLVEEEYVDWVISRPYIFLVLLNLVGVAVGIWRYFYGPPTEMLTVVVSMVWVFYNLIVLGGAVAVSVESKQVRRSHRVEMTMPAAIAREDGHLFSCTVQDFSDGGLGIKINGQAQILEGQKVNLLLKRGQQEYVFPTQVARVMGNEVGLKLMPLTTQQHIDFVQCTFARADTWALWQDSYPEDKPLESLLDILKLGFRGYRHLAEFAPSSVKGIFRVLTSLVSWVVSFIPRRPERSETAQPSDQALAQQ
# [2] = biological target: T1, BcsA cellulose synthase (BcsA^HA-FLAG); experiment: cryo-EM structure; Bcs macrocomplex co-expressed in E. coli and purified on anti-FLAG gel by BcsA^HA-FLAG, 20 mM HEPES pH 8.0, 120 mM NaCl, 5 mM MgCl2, 10 μM AppCp, 4 μM c-di-GMP, 0.01% LM-NPG; class of the c-di-GMP-saturated macrocomplex with local refinements; the BcsB crown refined from all particles; both …
Substance,binding [1],binding [2]
BcsQ (E. coli),binds,binds
BcsR (Bcs^HisR) (E. coli),binds,binds
